According to the supplement of paper PMC10849652:
Some of the results follow.

Sequences of proteins named here, by UniProt entry; tags and fusion partners are left off. A change or cut given only in a name is not applied to a line headed by its entry.
UniProt Q7Z4V5: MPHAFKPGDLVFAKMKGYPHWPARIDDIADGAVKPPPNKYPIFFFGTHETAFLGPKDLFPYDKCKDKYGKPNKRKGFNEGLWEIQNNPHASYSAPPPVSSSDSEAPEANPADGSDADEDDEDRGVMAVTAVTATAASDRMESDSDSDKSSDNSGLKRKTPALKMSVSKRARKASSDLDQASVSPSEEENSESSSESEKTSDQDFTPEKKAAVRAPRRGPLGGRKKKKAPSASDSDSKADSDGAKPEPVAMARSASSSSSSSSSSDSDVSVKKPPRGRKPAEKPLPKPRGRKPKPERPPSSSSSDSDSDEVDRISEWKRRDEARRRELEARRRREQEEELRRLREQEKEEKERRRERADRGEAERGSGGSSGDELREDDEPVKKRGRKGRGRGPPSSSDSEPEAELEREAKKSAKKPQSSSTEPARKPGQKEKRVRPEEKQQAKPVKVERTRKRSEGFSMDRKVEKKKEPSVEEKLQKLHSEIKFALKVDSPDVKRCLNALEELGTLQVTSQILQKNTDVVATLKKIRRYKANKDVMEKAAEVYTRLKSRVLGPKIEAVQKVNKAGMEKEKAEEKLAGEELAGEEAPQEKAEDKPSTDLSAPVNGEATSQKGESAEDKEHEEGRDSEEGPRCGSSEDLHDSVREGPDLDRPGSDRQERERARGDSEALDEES
UniProt Q9BX10: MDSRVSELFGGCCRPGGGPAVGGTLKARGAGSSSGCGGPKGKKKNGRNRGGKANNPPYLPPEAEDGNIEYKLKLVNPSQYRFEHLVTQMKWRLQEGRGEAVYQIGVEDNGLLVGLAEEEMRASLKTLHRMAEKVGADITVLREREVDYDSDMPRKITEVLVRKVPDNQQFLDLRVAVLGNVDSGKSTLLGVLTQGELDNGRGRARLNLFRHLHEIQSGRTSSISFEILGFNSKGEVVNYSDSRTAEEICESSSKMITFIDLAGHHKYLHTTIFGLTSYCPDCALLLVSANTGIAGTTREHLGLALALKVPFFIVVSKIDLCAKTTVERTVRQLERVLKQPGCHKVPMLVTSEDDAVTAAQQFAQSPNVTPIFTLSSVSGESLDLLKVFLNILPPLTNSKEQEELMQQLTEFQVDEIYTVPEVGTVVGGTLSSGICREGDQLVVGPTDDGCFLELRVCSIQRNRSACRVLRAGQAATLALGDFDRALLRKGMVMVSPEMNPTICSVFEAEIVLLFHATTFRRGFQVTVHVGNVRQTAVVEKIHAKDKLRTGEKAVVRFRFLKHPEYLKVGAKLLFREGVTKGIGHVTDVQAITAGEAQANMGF
UniProt Q92522: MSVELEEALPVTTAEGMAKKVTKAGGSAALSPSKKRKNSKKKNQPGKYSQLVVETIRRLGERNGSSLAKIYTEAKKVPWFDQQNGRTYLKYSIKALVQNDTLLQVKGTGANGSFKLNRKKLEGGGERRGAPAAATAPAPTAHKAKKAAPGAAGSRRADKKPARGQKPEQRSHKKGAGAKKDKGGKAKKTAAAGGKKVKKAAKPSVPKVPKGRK
UniProt P69891: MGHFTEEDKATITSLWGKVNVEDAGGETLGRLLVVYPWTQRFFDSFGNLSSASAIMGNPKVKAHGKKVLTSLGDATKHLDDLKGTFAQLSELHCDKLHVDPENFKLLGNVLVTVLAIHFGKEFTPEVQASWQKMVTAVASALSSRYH
UniProt P00390: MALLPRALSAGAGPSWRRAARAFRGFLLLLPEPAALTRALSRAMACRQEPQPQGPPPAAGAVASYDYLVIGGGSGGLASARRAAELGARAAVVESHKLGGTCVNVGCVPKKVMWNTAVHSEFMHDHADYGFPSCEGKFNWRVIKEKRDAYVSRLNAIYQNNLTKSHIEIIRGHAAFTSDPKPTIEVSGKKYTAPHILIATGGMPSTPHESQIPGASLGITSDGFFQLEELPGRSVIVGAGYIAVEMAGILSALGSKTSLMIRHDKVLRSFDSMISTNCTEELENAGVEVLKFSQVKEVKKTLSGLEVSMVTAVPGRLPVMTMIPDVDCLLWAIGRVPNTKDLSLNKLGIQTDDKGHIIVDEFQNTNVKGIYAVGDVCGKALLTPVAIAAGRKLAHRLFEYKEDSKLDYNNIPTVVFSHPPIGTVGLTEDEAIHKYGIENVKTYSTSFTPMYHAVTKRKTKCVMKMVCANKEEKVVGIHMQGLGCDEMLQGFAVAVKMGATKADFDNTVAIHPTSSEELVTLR
UniProt P02042: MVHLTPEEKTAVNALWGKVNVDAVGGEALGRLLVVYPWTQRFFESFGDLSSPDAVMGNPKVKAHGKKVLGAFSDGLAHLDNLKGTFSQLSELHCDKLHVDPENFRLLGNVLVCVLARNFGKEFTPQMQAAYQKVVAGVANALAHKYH
UniProt P40939: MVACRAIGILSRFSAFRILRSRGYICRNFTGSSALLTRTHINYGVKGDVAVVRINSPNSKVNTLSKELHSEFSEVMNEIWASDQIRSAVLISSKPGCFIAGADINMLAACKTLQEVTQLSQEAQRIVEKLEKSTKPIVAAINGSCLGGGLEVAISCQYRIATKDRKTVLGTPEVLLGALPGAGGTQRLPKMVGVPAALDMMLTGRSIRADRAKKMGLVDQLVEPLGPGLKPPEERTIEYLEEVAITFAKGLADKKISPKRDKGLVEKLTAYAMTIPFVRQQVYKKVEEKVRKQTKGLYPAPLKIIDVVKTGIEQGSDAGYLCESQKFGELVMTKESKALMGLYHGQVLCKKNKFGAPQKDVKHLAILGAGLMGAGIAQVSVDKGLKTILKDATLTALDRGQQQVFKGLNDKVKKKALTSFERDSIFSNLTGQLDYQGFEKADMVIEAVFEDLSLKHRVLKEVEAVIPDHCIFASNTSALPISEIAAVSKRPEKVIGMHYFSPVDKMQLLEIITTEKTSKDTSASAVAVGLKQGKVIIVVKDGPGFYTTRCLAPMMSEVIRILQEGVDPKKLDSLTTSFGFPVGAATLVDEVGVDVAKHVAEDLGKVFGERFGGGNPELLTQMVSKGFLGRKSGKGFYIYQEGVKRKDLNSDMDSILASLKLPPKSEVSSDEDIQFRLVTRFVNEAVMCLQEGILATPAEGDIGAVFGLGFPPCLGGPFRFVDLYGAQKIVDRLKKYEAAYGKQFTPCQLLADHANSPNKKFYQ
UniProt Q9P0R6: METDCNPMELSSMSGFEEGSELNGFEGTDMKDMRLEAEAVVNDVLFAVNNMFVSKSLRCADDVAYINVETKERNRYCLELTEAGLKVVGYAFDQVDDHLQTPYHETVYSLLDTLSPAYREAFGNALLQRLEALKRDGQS
UniProt Q16836: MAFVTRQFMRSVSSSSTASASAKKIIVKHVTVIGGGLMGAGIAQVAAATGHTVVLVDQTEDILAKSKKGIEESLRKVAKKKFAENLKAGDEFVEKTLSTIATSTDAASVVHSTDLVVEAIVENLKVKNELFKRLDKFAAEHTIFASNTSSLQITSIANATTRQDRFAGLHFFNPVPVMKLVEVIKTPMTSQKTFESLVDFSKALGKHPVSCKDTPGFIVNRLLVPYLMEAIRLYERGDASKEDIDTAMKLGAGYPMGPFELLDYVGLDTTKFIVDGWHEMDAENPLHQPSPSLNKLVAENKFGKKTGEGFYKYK
UniProt Q9NVX0: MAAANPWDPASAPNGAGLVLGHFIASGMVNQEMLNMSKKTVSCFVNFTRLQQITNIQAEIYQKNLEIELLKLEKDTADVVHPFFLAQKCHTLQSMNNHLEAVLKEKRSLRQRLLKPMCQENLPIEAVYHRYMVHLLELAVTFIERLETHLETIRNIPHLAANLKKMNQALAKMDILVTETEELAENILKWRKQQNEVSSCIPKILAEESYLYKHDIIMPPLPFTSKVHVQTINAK
UniProt P69892: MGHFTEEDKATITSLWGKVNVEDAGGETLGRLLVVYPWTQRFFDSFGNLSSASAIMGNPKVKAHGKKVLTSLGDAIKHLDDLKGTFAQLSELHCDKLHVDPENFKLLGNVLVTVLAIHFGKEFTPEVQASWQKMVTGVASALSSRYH
UniProt Q9Y5Q9: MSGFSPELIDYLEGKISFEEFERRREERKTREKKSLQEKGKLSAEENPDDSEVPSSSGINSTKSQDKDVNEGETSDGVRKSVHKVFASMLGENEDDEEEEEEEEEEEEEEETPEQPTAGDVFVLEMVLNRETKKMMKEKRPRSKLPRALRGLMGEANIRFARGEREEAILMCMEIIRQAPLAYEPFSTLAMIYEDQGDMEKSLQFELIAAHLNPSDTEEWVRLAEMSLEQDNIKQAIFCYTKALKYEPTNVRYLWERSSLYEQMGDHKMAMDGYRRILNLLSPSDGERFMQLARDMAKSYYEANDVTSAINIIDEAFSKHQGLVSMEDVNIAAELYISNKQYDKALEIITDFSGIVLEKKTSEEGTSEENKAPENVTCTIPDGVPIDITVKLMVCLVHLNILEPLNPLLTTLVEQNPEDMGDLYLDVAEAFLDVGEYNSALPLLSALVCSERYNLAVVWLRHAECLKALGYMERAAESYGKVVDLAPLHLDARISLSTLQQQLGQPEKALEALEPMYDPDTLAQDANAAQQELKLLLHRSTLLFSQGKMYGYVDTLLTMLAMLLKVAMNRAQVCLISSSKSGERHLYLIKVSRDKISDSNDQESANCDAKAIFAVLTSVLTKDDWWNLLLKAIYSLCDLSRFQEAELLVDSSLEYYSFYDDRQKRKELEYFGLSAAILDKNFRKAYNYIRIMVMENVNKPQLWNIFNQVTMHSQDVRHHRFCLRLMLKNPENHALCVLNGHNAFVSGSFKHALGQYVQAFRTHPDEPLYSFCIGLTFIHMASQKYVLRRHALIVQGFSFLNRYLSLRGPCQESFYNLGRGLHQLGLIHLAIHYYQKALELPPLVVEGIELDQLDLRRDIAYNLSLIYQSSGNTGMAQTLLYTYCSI
UniProt P13807: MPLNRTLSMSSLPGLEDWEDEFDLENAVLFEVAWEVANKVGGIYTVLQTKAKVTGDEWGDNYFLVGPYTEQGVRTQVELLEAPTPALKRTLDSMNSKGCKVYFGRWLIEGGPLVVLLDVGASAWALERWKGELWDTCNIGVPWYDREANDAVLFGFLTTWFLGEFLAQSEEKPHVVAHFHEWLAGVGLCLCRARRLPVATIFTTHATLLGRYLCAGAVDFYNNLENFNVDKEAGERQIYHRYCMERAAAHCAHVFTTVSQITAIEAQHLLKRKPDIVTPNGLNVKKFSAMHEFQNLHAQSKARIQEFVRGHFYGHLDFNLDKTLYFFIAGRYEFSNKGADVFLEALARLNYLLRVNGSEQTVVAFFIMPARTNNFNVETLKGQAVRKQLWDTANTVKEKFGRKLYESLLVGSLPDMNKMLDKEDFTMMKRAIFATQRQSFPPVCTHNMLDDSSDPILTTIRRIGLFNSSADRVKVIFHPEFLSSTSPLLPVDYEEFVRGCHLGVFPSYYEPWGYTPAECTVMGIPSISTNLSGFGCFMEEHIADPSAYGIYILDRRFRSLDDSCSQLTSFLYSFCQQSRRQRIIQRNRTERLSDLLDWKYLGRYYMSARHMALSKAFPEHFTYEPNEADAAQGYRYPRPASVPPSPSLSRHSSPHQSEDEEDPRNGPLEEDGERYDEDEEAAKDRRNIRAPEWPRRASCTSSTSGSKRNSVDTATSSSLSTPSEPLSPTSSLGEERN
UniProt P55084: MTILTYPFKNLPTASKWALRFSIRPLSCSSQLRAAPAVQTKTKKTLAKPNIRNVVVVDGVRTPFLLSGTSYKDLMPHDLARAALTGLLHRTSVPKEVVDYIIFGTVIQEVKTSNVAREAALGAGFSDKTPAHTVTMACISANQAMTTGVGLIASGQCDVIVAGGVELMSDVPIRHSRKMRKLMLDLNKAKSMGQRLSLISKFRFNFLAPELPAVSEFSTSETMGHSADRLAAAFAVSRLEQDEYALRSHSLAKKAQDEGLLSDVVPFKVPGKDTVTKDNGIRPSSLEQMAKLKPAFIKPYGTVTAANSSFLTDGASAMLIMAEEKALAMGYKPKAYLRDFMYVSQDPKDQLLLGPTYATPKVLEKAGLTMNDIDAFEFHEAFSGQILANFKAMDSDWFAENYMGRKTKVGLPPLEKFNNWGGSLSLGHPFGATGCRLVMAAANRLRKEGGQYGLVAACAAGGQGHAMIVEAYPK
UniProt P13984, whole entry, looked up: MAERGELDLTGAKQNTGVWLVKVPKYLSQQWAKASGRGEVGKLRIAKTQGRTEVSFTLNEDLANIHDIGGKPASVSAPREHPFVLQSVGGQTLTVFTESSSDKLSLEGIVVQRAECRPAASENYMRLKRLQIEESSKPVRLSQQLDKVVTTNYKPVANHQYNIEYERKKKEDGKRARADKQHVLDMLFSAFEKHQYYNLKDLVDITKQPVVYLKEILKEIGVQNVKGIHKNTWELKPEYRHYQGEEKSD
UniProt P21266: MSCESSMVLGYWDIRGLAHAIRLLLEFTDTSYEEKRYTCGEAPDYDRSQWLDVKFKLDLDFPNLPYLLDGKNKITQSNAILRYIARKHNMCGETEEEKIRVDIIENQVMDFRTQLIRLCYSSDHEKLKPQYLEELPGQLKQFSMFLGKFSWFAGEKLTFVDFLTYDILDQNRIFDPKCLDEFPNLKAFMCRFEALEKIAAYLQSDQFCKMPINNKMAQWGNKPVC

Compound: NC1(c2ccc(-c3nc4ccn5c(=O)[nH]nc5c4cc3-c3ccccc3)cc2)CCC1
Test: log2 fold change, soluble protein after heating vs DMSO (PISA); higher = thermal stabilisation; K562 lysate, 10 uM; active = over 0.2 and 3.5 SD of the protein, either way, in both replicates (recomputed)
How it was run: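 Thermal stability, expressed as log-two fold change relative to solvent controls, is given from duplicates. Crude K562 extract in PBS pH 7.4 with 1 mM MgCl2, at 1 mg/mL protein, was treated with 10 μM compound for 30 min and heated in aliquots for 3 min across 48°C-58°C. After pooling, adjustment to 0.5% NP-40 at 4°C and centrifugation at 21,000xg for 90 min, supernatant protein was measured by TMTpro 16plex LC-MS/MS with channel sums equalised.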

log2 fold change, inactive:
HAGH (UniProt Q16775) -0.032
HDGFL2 isoform 2 (UniProt Q7Z4V5) -0.02
GTPBP2 (UniProt Q9BX10) 0.046
H1FX (UniProt Q92522) -0.011
GSTZ1 (UniProt G3V4T6) -0.007
HBG1 (UniProt P69891) -0.011
H4C1 (UniProt P62805) 0.015
GSTO1 (UniProt P78417) 0.059
GSR (UniProt P00390) -0.114
HBD (UniProt P02042) -0.032
HADHA (UniProt P40939) 0.078
GSKIP (UniProt Q9P0R6) -0.004
HADH isoform 2 (UniProt Q16836) -0.031
GRAP2 (UniProt O75791) 0.011
HAUS2 (UniProt Q9NVX0) 0.037
HBG2 (UniProt P69892) -0.009
GTF3C3 (UniProt Q9Y5Q9) -0.084
GYS1 (UniProt P13807) 0.044
HADHB (UniProt P55084) 0.073
GPX4 (UniProt P36969) 0.011
HEATR1 (UniProt Q9H583) 0.036
HDLBP, A0A024R4E5 -0.022
GTF2F2 (UniProt P13984) -0.015
GSTM3 (UniProt P21266) 0.014

Random excerpt: 2 records from the list, in no set order.
log2 fold change, inactive:
HADHA (UniProt P40939) 0.078
HDLBP, A0A024R4E5 -0.022
